{"source": "paper PMC11297322", "about": "“MEILB2-BRME1 forms a V-shaped DNA clamp upon BRCA2-binding in meiotic recombination” (Nature Communications, 2023)", "assay_in_all_cases": "EMSA", "key": {"[1]": {"tested_on": "BRCA2MBD + MEILB2 (22-338) + BRME1MBD R540E R549E", "conditions": "EMSA: 20 mM HEPES pH 7.5, 325 mM KCl, 60 min room temperature; 0.4% agarose, 0.5x TBE pH 8.0, 4 C; 50 uM DNA per bp/base (qualitative); recombinant protein"}, "[2]": {"tested_on": "BRCA2MBD + MEILB2 (22-338) + BRME1MBD deltaRKTK", "conditions": "small discrete species, then larger; EMSA: 20 mM HEPES pH 7.5, 325 mM KCl, 60 min room temperature; 0.4% agarose, 0.5x TBE pH 8.0, 4 C; 50 uM DNA per bp/base (qualitative); recombinant protein"}, "[3]": {"tested_on": "BRCA2MBD + MEILB2 (22-338) + BRME1MBD", "conditions": "EMSA: 20 mM HEPES pH 7.5, 325 mM KCl, 60 min room temperature; 0.4% agarose, 0.5x TBE pH 8.0, 4 C; 50 uM DNA per bp/base (qualitative); recombinant protein"}, "[4]": {"tested_on": "BRCA2MBD + MEILB2 K26E + BRME1MBD", "conditions": "single discrete species; EMSA: 20 mM HEPES pH 7.5, 325 mM KCl, 60 min room temperature; 0.4% agarose, 0.5x TBE pH 8.0, 4 C; 50 uM DNA per bp/base (qualitative); recombinant protein"}, "[5]": {"tested_on": "MEILB2 (22-338) + BRME1MBD R540E R549E", "conditions": "EMSA: 20 mM HEPES pH 7.5, 325 mM KCl, 60 min room temperature; 0.4% agarose, 0.5x TBE pH 8.0, 4 C; 50 uM DNA per bp/base (qualitative); recombinant protein; protein details: His6-MBP tag, TEV-cleaved,His6 tag, TEV-cleaved"}, "[6]": {"tested_on": "MEILB2 (22-338) + BRME1MBD", "conditions": "saturation at one 2:2 complex per 10 bp; EMSA: 20 mM HEPES pH 7.5, 325 mM KCl, 60 min room temperature; 0.4% agarose, 0.5x TBE pH 8.0, 4 C; 50 uM DNA per bp/base (qualitative); recombinant protein; protein details: His6-MBP tag, TEV-cleaved,His6 tag, TEV-cleaved"}, "MEILB2 K26E + BRME1MBD": {"tested_on": "MEILB2 K26E + BRME1MBD", "conditions": "slight hint of binding at highest concentration; EMSA: 20 mM HEPES pH 7.5, 325 mM KCl, 60 min room temperature; 0.4% agarose, 0.5x TBE pH 8.0, 4 C; 50 uM DNA per bp/base (qualitative); recombinant protein; protein details: His6-MBP tag, TEV-cleaved,His6 tag, TEV-cleaved"}}, "note": "For some of these results: No signal at the amounts used counts as a negative. For some of these results: The comparison behind a weaker result is the experiment's own reference, which may not be listed here.", "data": [{"sequence": "ATGGAATCTAAAGAAGAATTTGTTAAAGTCAGAAAGAAGGACCTGGAACGGCTGACGACGGAAGTGATGCAAATACGGGACTTCTTACCCAGAATACTAAATGGGGAGTTACTGGAAAGTTTCCAGAAATTAAAGATGGTAGAAAAAAACCTGGAAAGAAAAGAACAAGAATTAGAGCAACTGATAATGGACCGTGAACACTTCAAAGCCCGGCTAGAAACTGCACAGGCAGACAGTGGGAGGGAGAAGAAGGAGAAGTTGGCTCTTCGACAGCAGCTGAATGAGGCAAAACAGCAGCTC (double strand) [300 bp dsDNA]", "values": [{"measurement": "binding result", "setting": "[1]", "result": "no binding"}, {"measurement": "binding result", "setting": "[2]", "result": "binds"}, {"measurement": "binding result", "setting": "[3]", "result": "binds"}, {"measurement": "binding result", "setting": "[4]", "result": "binds"}, {"measurement": "binding result", "setting": "[5]", "result": "no binding"}, {"measurement": "binding result", "setting": "[6]", "result": "binds"}, {"measurement": "binding result", "setting": "MEILB2 K26E + BRME1MBD", "result": "binds more weakly"}]}]}
